In patent publication US20190322748A1:
No constants are given. Whether binding was seen depends on the method and setting. Some entries that bind do so weakly or less than the wild type.

The chains behind the UniProt entries cited, without tags or fusion partners. Where a name states a change or a piece, a line headed by the entry shows the natural chain unless it says otherwise.
UniProt Q15116: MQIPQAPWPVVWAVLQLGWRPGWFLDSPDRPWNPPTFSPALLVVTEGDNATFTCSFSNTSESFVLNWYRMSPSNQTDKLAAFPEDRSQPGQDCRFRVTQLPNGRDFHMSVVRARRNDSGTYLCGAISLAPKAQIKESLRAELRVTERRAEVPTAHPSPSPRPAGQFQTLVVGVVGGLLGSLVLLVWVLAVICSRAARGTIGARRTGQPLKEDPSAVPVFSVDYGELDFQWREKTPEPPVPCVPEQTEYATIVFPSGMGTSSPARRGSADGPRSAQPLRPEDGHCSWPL

Molecular target: full-length human PD1 on cells (CHO-K1 stably transfected with plasmid 15311_hPD1-fl_pUC_Neo) (human) (UniProt Q15116)
Assay: cell ELISA on CHO-PD1 (row 'CHO-PD1 EC50')

Binder | binding
PD1-0103-0314 (antibody, human IgG1, V domains shown) VH: EVQLLESGGGLVQPGGSLRLSCAASGFSFSSYTMSWVRQAPGKGLEWVATISGGGRDIYYPDSVKGRFTISRDNSKNTLYLQMNSLRAEDTAVYYCVLLTGRVYFALDSWGQGTLVTVSS VL: EIVLTQSPATLSLSPGERATLSCRASESVDTSDNSFIHWYQQKPGQSPRLLIYRSSTLESGIPARFSGSGSGTDFTLTISSLEPEDFAVYYCQQNYDVPWTFGQGTKVEIK | binds
PD1-0103-0315 (antibody, human IgG1, V domains shown) VH: EVQLLESGGGLVQPGGSLRLSCAASGFSFSSYTMSWVRQAPGKGLEWVATISGGGRDIYYPDSVKGRFTISRDNSKNTLYLQMNSLRAEDTAVYYCVLLTGRVYFALDSWGQGTLVTVSS VL: EIVLTQSPATLSLSPGERATLSCRASESVDTSDNSFIHWYQQKPGQSPRLLIYRSSTLESGIPARFSGSGSGTDFTLTISSLEPEDFAVYYCQQNYDVPWTFGQGTKVEIK | binds
